No constants are given. Whether binding was seen depends on the method and setting. Binding seen in cells or lysates may run through a third protein. These calls come from enrichment with a bait or labelling near it, and not all partners need be listed.
molecular target: SARS-CoV-2 accessory protein ORF7a, full length, Flag-tagged (pCAGEN-Flag-ORF7a) (SARS-CoV-2) (UniProt P0DTC7); assay: affinity purification with mass spectrometry

Sequences of proteins named here, by UniProt entry; tags and fusion partners are left off. Residues count along the entry.
UniProt P0DTC7, residues 16-121: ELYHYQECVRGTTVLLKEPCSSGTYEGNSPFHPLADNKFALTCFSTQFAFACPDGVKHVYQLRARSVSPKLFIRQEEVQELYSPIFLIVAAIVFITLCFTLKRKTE
UniProt P27824, residues 21-592: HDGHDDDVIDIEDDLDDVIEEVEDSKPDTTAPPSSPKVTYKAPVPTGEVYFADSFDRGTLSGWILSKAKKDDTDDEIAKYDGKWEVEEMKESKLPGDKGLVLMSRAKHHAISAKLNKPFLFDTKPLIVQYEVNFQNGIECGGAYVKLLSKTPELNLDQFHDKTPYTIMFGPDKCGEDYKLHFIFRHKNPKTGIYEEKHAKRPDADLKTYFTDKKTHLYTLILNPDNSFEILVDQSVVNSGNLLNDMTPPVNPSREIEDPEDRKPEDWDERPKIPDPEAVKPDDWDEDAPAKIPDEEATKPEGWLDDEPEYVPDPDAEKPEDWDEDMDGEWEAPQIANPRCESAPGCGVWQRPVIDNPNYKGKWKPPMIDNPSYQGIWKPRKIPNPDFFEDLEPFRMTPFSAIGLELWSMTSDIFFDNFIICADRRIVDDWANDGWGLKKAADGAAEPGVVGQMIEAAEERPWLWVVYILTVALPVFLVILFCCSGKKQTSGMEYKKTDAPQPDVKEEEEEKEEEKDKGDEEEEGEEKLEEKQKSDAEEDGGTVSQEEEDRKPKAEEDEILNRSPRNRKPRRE
UniProt P08238: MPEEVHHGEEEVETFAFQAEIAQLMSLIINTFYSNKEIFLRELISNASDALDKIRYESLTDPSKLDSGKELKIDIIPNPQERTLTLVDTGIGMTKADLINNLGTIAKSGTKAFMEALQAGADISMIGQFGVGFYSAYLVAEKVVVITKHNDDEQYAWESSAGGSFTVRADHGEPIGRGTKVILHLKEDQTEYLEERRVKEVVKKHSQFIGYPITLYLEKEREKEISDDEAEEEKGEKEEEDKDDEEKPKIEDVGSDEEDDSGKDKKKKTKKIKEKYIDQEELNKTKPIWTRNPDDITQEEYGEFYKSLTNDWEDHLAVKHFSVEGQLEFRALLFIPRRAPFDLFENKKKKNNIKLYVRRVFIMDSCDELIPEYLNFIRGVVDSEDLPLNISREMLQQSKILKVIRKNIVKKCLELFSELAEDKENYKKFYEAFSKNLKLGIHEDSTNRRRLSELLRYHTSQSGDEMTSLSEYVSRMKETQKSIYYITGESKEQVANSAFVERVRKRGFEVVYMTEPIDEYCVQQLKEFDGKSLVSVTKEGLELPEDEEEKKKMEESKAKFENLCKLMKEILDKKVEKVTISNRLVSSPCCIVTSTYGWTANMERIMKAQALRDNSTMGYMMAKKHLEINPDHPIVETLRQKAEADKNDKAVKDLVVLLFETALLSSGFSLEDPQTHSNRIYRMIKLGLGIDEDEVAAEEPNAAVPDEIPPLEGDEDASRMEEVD
UniProt P14625, residues 22-803: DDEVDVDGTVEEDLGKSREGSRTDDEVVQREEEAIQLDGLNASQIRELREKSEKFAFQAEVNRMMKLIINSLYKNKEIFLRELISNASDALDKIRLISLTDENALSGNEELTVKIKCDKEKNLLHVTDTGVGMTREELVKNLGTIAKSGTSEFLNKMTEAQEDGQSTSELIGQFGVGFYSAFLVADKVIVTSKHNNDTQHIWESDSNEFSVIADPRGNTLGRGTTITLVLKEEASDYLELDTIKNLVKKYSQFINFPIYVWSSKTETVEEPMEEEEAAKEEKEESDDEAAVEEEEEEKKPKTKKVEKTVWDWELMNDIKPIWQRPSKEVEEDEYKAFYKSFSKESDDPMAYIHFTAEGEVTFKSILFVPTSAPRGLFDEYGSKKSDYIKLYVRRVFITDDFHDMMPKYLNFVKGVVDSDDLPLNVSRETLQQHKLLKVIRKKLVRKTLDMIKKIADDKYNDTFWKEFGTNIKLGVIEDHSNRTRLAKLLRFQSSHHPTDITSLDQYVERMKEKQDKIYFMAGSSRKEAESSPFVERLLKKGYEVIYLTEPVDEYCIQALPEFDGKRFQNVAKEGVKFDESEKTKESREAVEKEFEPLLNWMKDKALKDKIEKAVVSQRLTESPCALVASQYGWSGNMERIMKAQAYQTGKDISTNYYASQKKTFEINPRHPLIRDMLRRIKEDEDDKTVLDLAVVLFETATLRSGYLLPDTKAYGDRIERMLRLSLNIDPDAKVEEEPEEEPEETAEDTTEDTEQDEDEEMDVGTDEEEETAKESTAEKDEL
UniProt P11142: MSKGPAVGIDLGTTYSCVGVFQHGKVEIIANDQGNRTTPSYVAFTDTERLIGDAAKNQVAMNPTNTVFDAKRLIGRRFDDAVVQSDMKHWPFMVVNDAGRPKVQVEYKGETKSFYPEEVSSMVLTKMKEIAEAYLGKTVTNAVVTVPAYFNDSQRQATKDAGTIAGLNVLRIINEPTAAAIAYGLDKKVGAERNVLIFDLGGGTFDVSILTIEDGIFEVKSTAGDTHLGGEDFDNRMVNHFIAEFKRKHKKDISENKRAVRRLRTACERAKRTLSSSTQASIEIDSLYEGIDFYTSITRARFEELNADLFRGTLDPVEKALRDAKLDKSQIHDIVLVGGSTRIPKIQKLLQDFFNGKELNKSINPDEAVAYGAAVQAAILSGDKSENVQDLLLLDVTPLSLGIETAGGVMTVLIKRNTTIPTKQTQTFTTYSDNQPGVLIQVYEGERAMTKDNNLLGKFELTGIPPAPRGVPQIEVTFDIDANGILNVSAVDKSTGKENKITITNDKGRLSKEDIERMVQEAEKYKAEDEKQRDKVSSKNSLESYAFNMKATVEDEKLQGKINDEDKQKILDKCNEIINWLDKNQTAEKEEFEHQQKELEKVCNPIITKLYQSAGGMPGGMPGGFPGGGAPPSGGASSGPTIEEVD
UniProt P35580: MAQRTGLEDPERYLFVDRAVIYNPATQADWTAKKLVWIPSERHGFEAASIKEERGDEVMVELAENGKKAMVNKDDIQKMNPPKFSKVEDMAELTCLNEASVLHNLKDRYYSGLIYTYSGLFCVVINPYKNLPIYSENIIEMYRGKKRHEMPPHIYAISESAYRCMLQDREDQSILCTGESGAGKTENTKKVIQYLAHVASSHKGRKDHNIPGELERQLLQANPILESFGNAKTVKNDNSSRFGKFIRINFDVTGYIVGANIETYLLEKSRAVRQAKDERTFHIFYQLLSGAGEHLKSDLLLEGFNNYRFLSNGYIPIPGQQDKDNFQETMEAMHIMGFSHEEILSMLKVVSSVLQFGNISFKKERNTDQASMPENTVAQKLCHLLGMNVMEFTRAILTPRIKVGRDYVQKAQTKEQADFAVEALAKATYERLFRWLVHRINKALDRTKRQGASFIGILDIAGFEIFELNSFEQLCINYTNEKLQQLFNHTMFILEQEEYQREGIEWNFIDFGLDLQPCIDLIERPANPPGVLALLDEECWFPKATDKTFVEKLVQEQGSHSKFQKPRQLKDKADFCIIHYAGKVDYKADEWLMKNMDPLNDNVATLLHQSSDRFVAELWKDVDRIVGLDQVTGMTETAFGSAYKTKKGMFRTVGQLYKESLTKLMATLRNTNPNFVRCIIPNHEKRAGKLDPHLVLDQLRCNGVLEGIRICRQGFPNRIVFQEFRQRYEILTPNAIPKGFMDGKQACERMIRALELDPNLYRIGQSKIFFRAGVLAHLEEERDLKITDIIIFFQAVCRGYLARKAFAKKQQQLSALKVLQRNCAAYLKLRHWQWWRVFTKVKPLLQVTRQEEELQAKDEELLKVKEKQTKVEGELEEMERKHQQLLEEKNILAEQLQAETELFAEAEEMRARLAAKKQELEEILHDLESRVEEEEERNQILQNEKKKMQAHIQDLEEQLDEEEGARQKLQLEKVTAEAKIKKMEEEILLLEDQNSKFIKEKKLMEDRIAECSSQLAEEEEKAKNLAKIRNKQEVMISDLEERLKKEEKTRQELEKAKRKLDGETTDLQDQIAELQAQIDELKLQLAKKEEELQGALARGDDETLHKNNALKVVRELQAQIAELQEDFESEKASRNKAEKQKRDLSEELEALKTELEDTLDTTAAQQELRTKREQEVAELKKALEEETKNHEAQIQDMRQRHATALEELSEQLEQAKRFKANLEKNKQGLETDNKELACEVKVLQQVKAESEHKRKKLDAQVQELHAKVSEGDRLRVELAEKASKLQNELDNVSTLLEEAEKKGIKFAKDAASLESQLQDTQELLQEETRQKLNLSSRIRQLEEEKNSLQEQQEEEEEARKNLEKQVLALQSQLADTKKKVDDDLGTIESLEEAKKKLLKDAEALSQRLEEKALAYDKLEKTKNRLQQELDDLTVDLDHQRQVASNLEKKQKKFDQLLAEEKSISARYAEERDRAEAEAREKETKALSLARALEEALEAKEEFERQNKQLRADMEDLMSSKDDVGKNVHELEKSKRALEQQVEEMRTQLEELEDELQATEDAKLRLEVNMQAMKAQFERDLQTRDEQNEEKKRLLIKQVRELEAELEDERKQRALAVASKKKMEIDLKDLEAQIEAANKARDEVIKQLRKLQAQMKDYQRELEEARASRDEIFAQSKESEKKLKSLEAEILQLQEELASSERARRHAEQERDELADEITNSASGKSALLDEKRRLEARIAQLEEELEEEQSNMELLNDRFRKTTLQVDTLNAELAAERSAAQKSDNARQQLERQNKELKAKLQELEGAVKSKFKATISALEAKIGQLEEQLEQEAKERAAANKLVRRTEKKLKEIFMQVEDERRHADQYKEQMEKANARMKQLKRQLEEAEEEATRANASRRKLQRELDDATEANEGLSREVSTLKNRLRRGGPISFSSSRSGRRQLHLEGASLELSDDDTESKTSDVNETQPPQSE
UniProt P60660: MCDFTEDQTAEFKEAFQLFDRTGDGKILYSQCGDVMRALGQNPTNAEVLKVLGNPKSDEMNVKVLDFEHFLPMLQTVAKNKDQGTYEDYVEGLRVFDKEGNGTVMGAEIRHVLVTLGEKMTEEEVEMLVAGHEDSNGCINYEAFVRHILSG

Question: For CANX (from UniProt P27824 21-592), which binding is on record?
Answer: binds

Question: How did the binding turn out when HSP90AB1 (from UniProt P08238 1-724) was run?
Answer: binds

Question: Which binding does the source give for HSP90B1 (from UniProt P14625 22-803) here?
Answer: binds

Question: How did the binding turn out when HSPA8 (from UniProt P11142 1-646) was run?
Answer: binds

Question: How did the binding turn out when MYH10 (from UniProt P35580 1-1976) was run?
Answer: binds

Question: MYL6 (from UniProt P60660 1-151) was tested. Which binding did it give?
Answer: binds

Question: How did the binding turn out when VCP (from UniProt P55072 1-806) was run?
Answer: binds
